{
  "source": "PubChem BioAssay AID540256",
  "about": "(National Center for Advancing Translational Sciences (NCATS), 2011)",
  "note": "The campaign covered roughly 300,000 compounds. About 3,700 (1.2%) were called active. Inconclusive means that the source gave no clear call. Such entries were picked first, then a sample of the others. The call rests on the fitted dose curve; tested in HEK293 cells. Where the call is inconclusive, the potency comes from a doubtful curve fit. On the % scale 0 is the no-effect control and ±100 the full control effect; potency means the concentration at half of the fitted maximal effect.",
  "data": [
    {"experiment": "qHTS for Inhibitors of binding or entry into cells for Lassa Virus; further: nearly all actives have a fitted effect of over 50% in size", "conditions": "Lassa virus pseudotype entry inhibition, cell reporter; activity change, negative = inhibition: at 37.9 µM (top of the series) unless noted", "values": [
      {"smiles": "COC(=O)c1scc(-c2ccc(C)cc2)c1S(=O)(=O)N1CCN(c2cccc(OC)c2)CC1", "Potency": "inconclusive: 11.2 µM [inhibitor, partial curve, poor fit]"},
      {"smiles": "CC(NC1CCCC1)c1ccccc1", "note": "(configuration not stated)", "Potency": "inconclusive: 25.1 µM [activator, single point]"},
      {"smiles": "O=C(c1ccc(Cl)nc1)c1cccs1", "activity change, negative = inhibition": "inactive: 16.3%"},
      {"smiles": "CC1=C(C(=O)Nc2ccccc2C(F)(F)F)C(c2sccc2C)NC(=S)N1", "note": "(configuration not stated)", "Potency": "inconclusive: 10 µM [inhibitor, partial curve, poor fit]"},
      {"smiles": "N#CN=C1CCCCCN1CC(N)=O", "Potency": "inconclusive: 0.0052 µM [inhibitor, full curve, poor fit]"},
      {"smiles": "COc1ccc(Cl)cc1NC(=O)Cn1c(NCCO)nc2ccccc21", "Potency": "inconclusive: 3.55 µM [inhibitor, partial curve, poor fit]"},
      {"smiles": "COC(=O)c1ccc(-c2n[nH]c(=O)c3ccccc23)cc1", "activity change, negative = inhibition": "inactive: -25.6%"},
      {"smiles": "O=C(Nc1cccc(Cl)c1)c1ccc(F)c(S(=O)(=O)NCc2cccs2)c1", "Potency": "inconclusive: 12.6 µM [inhibitor, partial curve, poor fit]"},
      {"smiles": "O=S(=O)(NCc1cc(-c2ccc(Cl)cc2)no1)c1ccc(Cl)cc1", "Potency": "inconclusive: 29.1 µM [inhibitor, single point]"},
      {"smiles": "CCOc1ccc(C(=O)NCCn2cc(SCC(=O)Nc3ccc4c(c3)OCCO4)c3ccccc32)cc1", "Potency": "inconclusive: 35.5 µM [inhibitor, single point]"},
      {"smiles": "O=C(NNC(=O)c1cccnc1)Nc1cccc(Cl)c1Cl", "Potency": "inconclusive: 22.4 µM [activator, single point]"},
      {"smiles": "Cc1c(C(=O)N2CCc3ccccc32)oc2c1C(=O)CC(C)(C)C2", "activity change, negative = inhibition": "inactive: -12.1%"},
      {"smiles": "N#CCc1cnc2ccccc2n1", "activity change, negative = inhibition": "inactive: -22.7% [at 46.1 µM]"},
      {"smiles": "CCOc1ccccc1N1CCN(CC(=O)NCCc2ccc(S(N)(=O)=O)cc2)CC1", "activity change, negative = inhibition": "inactive: 10.3% [at 46.1 µM]"},
      {"smiles": "Cc1cccc(NC(=S)N(Cc2ccc(Cl)cc2)Cc2ccc(C(=O)O)cc2)c1", "Potency": "inconclusive: 6.31 µM [inhibitor, single point]"},
      {"smiles": "C/C(=N\\NC(=O)CCc1ccc(S(=O)(=O)N2CCOCC2)cc1)c1ccc(OC(F)F)cc1", "Potency": "inconclusive: 6.31 µM [inhibitor, partial curve]"},
      {"smiles": "Cc1ccc(Cl)cc1-n1c(=O)cc(N2CC(C)OC(C)C2)[nH]c1=O", "note": "(configuration not stated)", "activity change, negative = inhibition": "inactive: 16.9%"},
      {"smiles": "CCCC1=Nc2cc(C(=O)NCc3ccc(OC)cc3)ccc2Sc2ccc(C)cc21", "Potency": "inconclusive: 3.98 µM [inhibitor, partial curve, poor fit]"},
      {"smiles": "O=C(CCC1N=C2c3ccccc3N=C(SCc3ccc(F)cc3)N2C1=O)NCc1ccc(F)cc1", "note": "(configuration not stated)", "activity change, negative = inhibition": "inactive: -2.98% [at 46.1 µM]"},
      {"smiles": "O=c1c2ccccc2n(Cc2cccc(F)c2)c(=O)n1C1CCCC1", "Potency": "inconclusive: 1.26 µM [inhibitor, single point]"},
      {"smiles": "CCc1cccc(C)c1NC(=O)Cn1ccn(-c2cccc(OC)c2)c(=O)c1=O", "activity change, negative = inhibition": "inactive: 0.435% [at 46.1 µM]"},
      {"smiles": "CC1CCN(CCCOc2ccc(Cl)cc2Br)CC1", "activity change, negative = inhibition": "inactive: -14.7% [at 46.1 µM]"},
      {"smiles": "COC(=O)[C@H](CCSC)NC(=O)NCc1ccc(S(N)(=O)=O)cc1", "Potency": "inconclusive: 29.1 µM [activator, single point]"},
      {"smiles": "Cc1ccc2nc(NC(=O)CSCC(=O)OCC(=O)c3ccc(Br)cc3)sc2c1", "Potency": "active: 7.94 µM"},
      {"smiles": "CCOC(=O)N(C)c1ccc(C(O)(C(=O)OC)C(F)(F)F)cc1", "note": "(configuration not stated)", "activity change, negative = inhibition": "inactive: -18.9%"},
      {"smiles": "CCc1ccccc1NC(=O)CNC(=O)c1ccc(-n2cncn2)c([N+](=O)[O-])c1", "Potency": "inconclusive: 0.251 µM [inhibitor, full curve, poor fit]"},
      {"smiles": "CCc1cccc(NC(=O)CCC(=O)N2CCSc3ccccc32)c1", "activity change, negative = inhibition": "inactive: -4.61% [at 46.1 µM]"},
      {"smiles": "Cc1ccc(Oc2c(C(F)(F)F)oc3c(CN4CCC(C)CC4)c(O)ccc3c2=O)cc1", "activity change, negative = inhibition": "inactive: 9.74% [at 46.1 µM]"},
      {"smiles": "COC(=O)c1ccc(CSc2nc3ccccc3c(=O)n2-c2ccc(OC)c(OC)c2)o1", "Potency": "inconclusive: 3.66 µM [inhibitor, full curve]"},
      {"smiles": "CCOc1ccc(C(=O)CCN2CCCCCC2)cc1", "Potency": "inconclusive: 11.2 µM [inhibitor, partial curve]"},
      {"smiles": "Clc1cccc(C[n+]2cc(-c3ccccc3)n3c2CCC3)c1", "activity change, negative = inhibition": "inactive: 2.82%"},
      {"smiles": "CC(=O)c1cccc(NC(=O)c2ccc(S(=O)(=O)N3CCCC3)cc2)c1", "activity change, negative = inhibition": "inactive: 6.96% [at 46.1 µM]"},
      {"smiles": "COc1cccc(S(=O)(=O)N2CCN(C(=O)c3ccco3)CC2)c1", "activity change, negative = inhibition": "inactive: -3.14% [at 46.1 µM]"},
      {"smiles": "CCOC(=O)C(CC)Sc1nc2c(c(=O)[nH]c(=O)n2C)n1CCc1ccccc1", "note": "(configuration not stated)", "Potency": "inconclusive: 8.91 µM [inhibitor, partial curve]"},
      {"smiles": "CCC(=O)Nc1nc2ccccc2n1Cc1ccccc1C", "Potency": "inconclusive: 0.316 µM [activator, full curve, poor fit]"},
      {"smiles": "O=C(CCl)Nc1ccccc1Sc1ccc(Cl)cc1", "Potency": "inconclusive: 20.6 µM [inhibitor, single point]"},
      {"smiles": "CCCCn1c(SCC(=O)Nc2cc(C(F)(F)F)cc(C(F)(F)F)c2)nnc1C(CC)N(C)C", "note": "(configuration not stated)", "Potency": "inconclusive: 12.6 µM [inhibitor, partial curve]"},
      {"smiles": "CCOc1ccc(NC(=O)COC(=O)CCN2C(=O)C3CC=CCC3C2=O)cc1OCC", "note": "(configuration not stated)", "activity change, negative = inhibition": "inactive: 3.59%"},
      {"smiles": "O=C(COC(=O)c1ccccc1O)NCC1COc2ccccc2O1", "note": "(configuration not stated)", "Potency": "inconclusive: 1.12 µM [activator, full curve, poor fit]"},
      {"smiles": "Cc1noc(C)c1CSCC(=O)Nc1cc(Cl)ccc1N1CCCCC1", "Potency": "inconclusive: 35.5 µM [inhibitor, single point]"},
      {"smiles": "COc1ccc(/C=N/NC(=O)c2cccc(Br)c2)cc1CN1CCOCC1", "activity change, negative = inhibition": "inactive: 10.2%"},
      {"smiles": "Cc1ccc(NC(=O)c2cncc(Br)c2)c([N+](=O)[O-])c1", "Potency": "inconclusive: 20.6 µM [activator, single point]"},
      {"smiles": "CCCNC(=O)CC1OC(C2CCCCC2)Cc2ccccc21", "note": "(configuration not stated)", "Potency": "inconclusive: 1.06 µM [inhibitor, full curve, poor fit]"},
      {"smiles": "COCCCNc1oc(/C=C/c2cc(OC)c(OC)c(OC)c2)nc1C#N", "activity change, negative = inhibition": "inactive: -8.12% [at 46.1 µM]"},
      {"smiles": "COc1ccc(CCNC(=O)C(C)n2nc(C)c3c(C)n(-c4ccc(C)cc4)nc3c2=O)c(OC)c1", "note": "(configuration not stated)", "Potency": "inconclusive: 6.31 µM [inhibitor, partial curve, poor fit]"},
      {"smiles": "CC1C/C(=N/N=C2/NC(=O)CS2)CC(C)(C)C1", "note": "(configuration not stated)", "activity change, negative = inhibition": "inactive: -0.315%"},
      {"smiles": "CN(Cc1ccccc1)S(=O)(=O)c1ccc(OCC(=O)NCc2cccnc2)cc1", "Potency": "inconclusive: 6.31 µM [inhibitor, single point]"},
      {"smiles": "O=C(N1CCN=C1SCc1cccnc1)C12CC3CC(CC(C3)C1)C2", "Potency": "inconclusive: 14.1 µM [inhibitor, partial curve, poor fit]"},
      {"smiles": "O=C(c1ccccn1)N1CCN(c2cccc(C(F)(F)F)c2)CC1", "Potency": "inconclusive: 29.1 µM [inhibitor, single point]"},
      {"smiles": "CCOc1ccc(N(CC)S(=O)(=O)c2ccc3c(c2)oc(=O)n3C)cc1", "Potency": "inconclusive: 29.1 µM [inhibitor, single point]"},
      {"smiles": "Clc1ccc(/C=C/c2nc3ccccc3[nH]2)cc1", "Potency": "inconclusive: 8.2 µM [inhibitor, partial curve, poor fit]"},
      {"smiles": "COc1cccc(-c2nnc(SCC(=O)N(C(C)C)C(C)C)o2)c1", "Potency": "inconclusive: 29.1 µM [activator, partial curve, poor fit]"},
      {"smiles": "CC(=O)c1sc(NC(=O)C2(F)C(F)(F)C(F)(F)C(F)(F)C(F)(F)C2(F)F)nc1C", "Potency": "active: 1.64 µM"},
      {"smiles": "COc1ccc2cc(CN(Cc3cccs3)Cc3nnnn3Cc3ccccc3)c(=O)[nH]c2c1", "Potency": "inconclusive: 29.1 µM [inhibitor, single point]"},
      {"smiles": "COc1ccc(N2CCN(C(=O)CCn3nc(C)c(S(=O)(=O)N4CCCC4)c3C)CC2)cc1", "activity change, negative = inhibition": "inactive: -16.4% [at 46.1 µM]"},
      {"smiles": "CCOC(=O)N1CCN(C(=O)c2ccc3c(c2)sc2nc(-c4ccccc4)cn23)CC1", "Potency": "inconclusive: 35.5 µM [inhibitor, single point]"},
      {"smiles": "O=C(NCc1cccnc1)c1ccc(COc2ccccc2Br)cc1", "Potency": "inconclusive: 35.5 µM [inhibitor, partial curve, poor fit]"},
      {"smiles": "O=C(NCCc1cccc(Cl)c1)c1cccs1", "activity change, negative = inhibition": "inactive: -7.6% [at 46.1 µM]"},
      {"smiles": "COC(=O)c1ccc(/C=C/c2ccc3cccc(OC)c3n2)cc1", "activity change, negative = inhibition": "inactive: -1.23%"},
      {"smiles": "COc1cccc(C(=O)Nc2cnc(NC(=O)c3ccco3)cc2C)c1", "activity change, negative = inhibition": "inactive: 18.1%"},
      {"smiles": "CCCc1cc(=O)[nH]c(Nc2ccc3c(c2)OCCO3)n1", "activity change, negative = inhibition": "inactive: -0.142%"},
      {"smiles": "O=C(CSc1nnc(-c2cccs2)o1)Oc1ccccc1", "Potency": "inconclusive: 11.2 µM [activator, partial curve, poor fit]"},
      {"smiles": "CCCN1C(=O)CN(C2CCCCCC2)C(=O)C1c1ccc(C)cc1", "note": "(configuration not stated)", "Potency": "inconclusive: 5.8 µM [inhibitor, single point]"},
      {"smiles": "Cc1ccc(OCCOCCOc2ccc(Br)cc2/C=N\\NC(=O)c2ccncc2)cc1", "Potency": "inconclusive: 22.4 µM [inhibitor, single point]"},
      {"smiles": "CCCOc1cccc(-c2cc(C(=O)N/N=C/c3cccnc3)c3ccccc3n2)c1", "Potency": "inconclusive: 22.4 µM [inhibitor, partial curve, poor fit]"},
      {"smiles": "CCN(CC)C(=O)c1c(-c2ccccc2)c(-c2ccccc2)nn(C)c1=O", "activity change, negative = inhibition": "inactive: -13.2% [at 46.1 µM]"},
      {"smiles": "CC(NC(=O)C1CCN(S(=O)(=O)c2cc([N+](=O)[O-])ccc2Cl)CC1)c1ccccc1", "note": "(configuration not stated)", "activity change, negative = inhibition": "inactive: -20% [at 46.1 µM]"},
      {"smiles": "CC(=O)N1CCCc2cc(S(=O)(=O)N3CCC(C(=O)Nc4cccc(Cl)c4C)CC3)ccc21", "activity change, negative = inhibition": "inactive: 2.93% [at 46.1 µM]"},
      {"smiles": "Cc1cc2ccccc2n1-c1ccc(C(=O)N2CCC(C(=O)NCc3ccc(Cl)cc3)CC2)s1", "activity change, negative = inhibition": "inactive: -27.8% [at 46.1 µM]"},
      {"smiles": "Cc1[nH]nc(-c2ccc(O)c(C)c2O)c1Oc1ccccc1", "activity change, negative = inhibition": "inactive: 13.5%"},
      {"smiles": "COc1cc2nc(Cl)nc(N3CCCCC3)c2cc1OC", "Potency": "inconclusive: 4.47 µM [inhibitor, full curve, poor fit]"},
      {"smiles": "CCOC(=O)C1=C(c2ccccc2)NC(SCC(=O)Nc2ccccc2C)=C(C#N)C1c1ccco1", "note": "(configuration not stated)", "Potency": "inconclusive: 8.2 µM [inhibitor, partial curve]"}
    ]}
  ]
}
